# Data source: PubChem BioAssay AID1224826 (NIAID, 2016)
# Assay: 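Genes that change LPS-induced Tnf promoter activity in mouse macrophages when knocked down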 (primary screen)
# Cell system: RAW264.7 G9 macrophages from mouse bearing reporters for p65 (GFP) and the Tnf promoter (mCherry)
# Knock-down reagent: siRNA pool against mouse genes, 100 nM
# Time to read-out: 16 h of LPS stimulation, after 2 days of siRNA transfection
# Treatment: bacterial lipopolysaccharide (Salmonella minnesota R595), 10 ng/ml
# Measured: 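Imaged Tnf reporter mCherry in nuclei, minus background, normalised per plate to the median and expressed as robust z-scores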
# Reading the numbers: Tnf reporter robust z-score: higher = stronger Tnf promoter reporter signal after LPS
# Active means: 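a well counts as active at a score of -1.3 or below (Tlr4 knock-down control median) or above 3 (raised signal); controls and wells holding fewer than 50 cells are excluded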
# Calls: active = Tnf reporter clearly lowered or raised; inactive = no clear change in Tnf reporter
# The deposit covers about 17,000 reagents; below is a random part of them. About 1,110 of all reagents (6.6%) count as active. 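Active means lowered or raised reporter signal; replicate intensities are raw and not normalised per plate.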 Unmarked entries are inactive. Reagents against one gene are numbered here. Not all columns of the deposit are shown. Reagent sequences are not shown.
Tnf reporter robust z-score,fewer than 50 cells in well,target,reagent no.
1.03,enough cells in well,Snapc4 (GeneID 227644),1
,fewer than 50 cells per well; well left out of calls,Wdr74 (GeneID 107071),1
-0.13,enough cells in well,1700018B08Rik (GeneID 76405),1
-0.94,enough cells in well,Ankrd9 (GeneID 74251),1
0.85,enough cells in well,Nkain3 (GeneID 269513),1
0.63,enough cells in well,Klrc1 (GeneID 16641),1
-1.23,enough cells in well,Lrrc3 (GeneID 237387),1
-1.44 (active),enough cells in well,Dbnl (GeneID 13169),1
-0.32,enough cells in well,Ppp6r3 (GeneID 52036),1
-0.16,enough cells in well,Sox13 (GeneID 20668),1
1.52,enough cells in well,Trpc5 (GeneID 22067),1
0.42,enough cells in well,Itpka (GeneID 228550),1
2.33,enough cells in well,Ddah1 (GeneID 69219),1
-0.27,enough cells in well,Gde1 (GeneID 56209),1
-0.31,enough cells in well,Mmgt2 (GeneID 216829),1
-1.26,enough cells in well,Nxph1 (GeneID 18231),1
-1.35 (active),enough cells in well,Aoah (GeneID 27052),1
-0.99,enough cells in well,Gm20558 (GeneID 330108),1
-0.33,enough cells in well,Cavin2 (GeneID 20324),1
-0.31,enough cells in well,Eef1a2 (GeneID 13628),1
-0.02,enough cells in well,Camkk2 (GeneID 207565),1
-0.75,enough cells in well,Tmed4 (GeneID 103694),1
-0.58,enough cells in well,Mak16 (GeneID 67920),1
-0.45,enough cells in well,Rnf144a (GeneID 108089),1
0.23,enough cells in well,Zfp553 (GeneID 233887),1

Continued; the last 5 above are carried over.
Tnf reporter robust z-score,fewer than 50 cells in well,target,reagent no.
-0.02,enough cells in well,Camkk2 (GeneID 207565),1
-0.75,enough cells in well,Tmed4 (GeneID 103694),1
-0.58,enough cells in well,Mak16 (GeneID 67920),1
-0.45,enough cells in well,Rnf144a (GeneID 108089),1
0.23,enough cells in well,Zfp553 (GeneID 233887),1
0.11,enough cells in well,Cerk (GeneID 223753),1
-1.09,enough cells in well,A930037J23RIK,1
0.23,enough cells in well,Tead3 (GeneID 21678),1
,fewer than 50 cells per well; well left out of calls,Washc3 (GeneID 67282),1
0.05,enough cells in well,Hspa13 (GeneID 110920),1
0.52,enough cells in well,Mgst1 (GeneID 56615),1
-0.1,enough cells in well,Tmem201 (GeneID 230917),1
1.3,enough cells in well,Cstf1 (GeneID 67337),1
-1.33 (active),enough cells in well,Tmem132a (GeneID 98170),1
1.01,enough cells in well,Inhca (GeneID 71775),1
-0.01,enough cells in well,Chrm4 (GeneID 12672),1
0.84,enough cells in well,Ddr2 (GeneID 18214),1
-0.54,enough cells in well,Skint2 (GeneID 329919),1
0.09,enough cells in well,Odf2 (GeneID 18286),1
0.17,enough cells in well,Zfp526 (GeneID 210172),1
-0.33,enough cells in well,Meox1 (GeneID 17285),1
,fewer than 50 cells per well; well left out of calls,Krtap9-3 (GeneID 75586),1
-0.66,enough cells in well,Kirrel1 (GeneID 170643),1
0.55,enough cells in well,Kirrel1 (GeneID 170643),2
-0.56,enough cells in well,Dio3 (GeneID 107585),1
1.22,enough cells in well,Hoxd13 (GeneID 15433),1
1.25,enough cells in well,Chpf (GeneID 74241),1
0.3,enough cells in well,Tnfrsf13b (GeneID 57916),1
0.56,enough cells in well,Tacc2 (GeneID 57752),1
0.53,enough cells in well,Or5g9 (GeneID 258565),1
0.27,enough cells in well,Adam33 (GeneID 110751),1
-0.62,enough cells in well,Kif1c (GeneID 16562),1
0.05,enough cells in well,Ccnb2 (GeneID 12442),1
,fewer than 50 cells per well; well left out of calls,Suds3 (GeneID 71954),1
-0.27,enough cells in well,Cxcr2 (GeneID 12765),1
,fewer than 50 cells per well; well left out of calls,Klk1b9 (GeneID 13648),1
0.84,enough cells in well,Itih4 (GeneID 16427),1
-1.27,enough cells in well,Vgll2 (GeneID 215031),1
